Source: article PMC11266601
These are yes or no findings as the source states them, for the method shown. In cells and extracts the contact can be indirect. Some entries that bind do so weakly or less than the wild type.

The chains behind the UniProt entries cited, without tags or fusion partners.
UniProt O70145: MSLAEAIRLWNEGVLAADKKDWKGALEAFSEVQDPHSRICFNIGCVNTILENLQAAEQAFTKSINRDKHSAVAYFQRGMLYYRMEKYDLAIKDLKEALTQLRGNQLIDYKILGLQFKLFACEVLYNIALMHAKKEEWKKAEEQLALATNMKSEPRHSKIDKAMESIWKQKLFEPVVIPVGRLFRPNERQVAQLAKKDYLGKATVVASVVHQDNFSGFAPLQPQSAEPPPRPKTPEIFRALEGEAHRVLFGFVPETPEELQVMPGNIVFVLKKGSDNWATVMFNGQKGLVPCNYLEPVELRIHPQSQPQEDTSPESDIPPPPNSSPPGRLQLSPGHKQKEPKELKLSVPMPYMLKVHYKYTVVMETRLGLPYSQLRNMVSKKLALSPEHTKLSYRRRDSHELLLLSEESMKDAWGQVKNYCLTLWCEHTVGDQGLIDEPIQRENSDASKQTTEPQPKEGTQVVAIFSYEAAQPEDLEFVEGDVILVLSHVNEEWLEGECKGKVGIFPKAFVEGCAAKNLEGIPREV

T1: NOX2/gp91^phox, endogenous in murine bone marrow-derived macrophages (mouse (endogenous in BMDMs)) (UniProt Q61093)
T1 sequence: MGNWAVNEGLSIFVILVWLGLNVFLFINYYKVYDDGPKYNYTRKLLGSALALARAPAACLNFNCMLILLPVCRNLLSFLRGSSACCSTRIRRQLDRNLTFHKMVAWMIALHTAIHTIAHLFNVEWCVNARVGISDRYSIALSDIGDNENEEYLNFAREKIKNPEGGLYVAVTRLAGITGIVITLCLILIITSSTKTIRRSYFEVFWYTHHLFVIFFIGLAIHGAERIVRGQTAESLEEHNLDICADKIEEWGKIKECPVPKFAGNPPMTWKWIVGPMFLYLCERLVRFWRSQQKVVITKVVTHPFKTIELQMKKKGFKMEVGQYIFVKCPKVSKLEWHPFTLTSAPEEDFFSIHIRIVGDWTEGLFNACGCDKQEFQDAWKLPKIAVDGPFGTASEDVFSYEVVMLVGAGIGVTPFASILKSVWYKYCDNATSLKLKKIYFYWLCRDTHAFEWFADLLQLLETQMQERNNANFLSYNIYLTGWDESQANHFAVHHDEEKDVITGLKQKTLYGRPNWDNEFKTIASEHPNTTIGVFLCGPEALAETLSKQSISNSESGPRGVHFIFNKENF

B1: p47^phox, endogenous in murine bone marrow-derived macrophages (protein, UniProt Q09014 1-390)
chain: MGDTFIRHIALLGFEKRFIPSQHYVYMFLVKWQDLSEKVVYRKFTEIYEFHKMLKEMFPIEAGEIHTENRVIPHLPAPRWFDGQRAAESRQGTLTEYFNGLMGLPVKISRCPHLLDFFKVRPDDLKLPTDSQAKKPETYLVPKDGKNNVADITGPIILQTYRAIADYEKSSGTEMTVATGDVVDVVEKSESGWWFCQMKTKRGWVPASYLEPLDSPDEAEDPDPNYAGEPYVTIKAYAAVEEDEMSLSEGEAIEVIHKLLDGWWVVRKGDITGYFPSMYLQKAGEEITQAQRQIRGRGAPPRRSTIRNAQSIHQRSRKRLSQDTYRRNSVRFLQQRRRPGRPGPLSTDGTKDNPSTPRVKPQPAVPPRPSSDLILHRCTESTKRKLTSAV

Target: T1, NOX2/gp91^phox, endogenous in murine bone marrow-derived macrophages (mouse (endogenous in BMDMs))
Assay: co-IP; lysates (RIPA) of BMDMs infected for 2 h with V. vulnificus strains (EF, EF::RDTND-RID, EF::RDTND-RIDC/A, EF::RDTNDE/Q-RIDC/A, EF::RDTND4mt-RIDC/A), anti-gp91^phox antibody and protein A/G agarose, immunoblot

| Molecule | binding |
| --- | --- |
| p67^phox, endogenous in murine bone marrow-derived macrophages (from UniProt O70145 1-525) | binds |
| B1 | binds |
